Hit rate of the full screen: of about 320,000 compounds, about 620 (0.19%) were called active. This list was built around the results that the source calls inconclusive (neither active nor inactive); the mix of calls is not that of the screen. The call rests on the fitted dose curve; in most records, active means well fitted activation curve with a large enough effect; inconclusive means small, poorly fitted or top-dose-only effect; inactive means no such curve, though single readings can be large or run the other way. Potencies of inconclusive entries are doubtful fits and often do not repeat.
Assay: qHTS Assay for Identifying a Potential Treatment of Ataxia-Telangiectasia; further: nearly all actives have a fitted effect of over 45% in size; on activation: % of control where 0% means no effect
Details: […] A-T fibroblasts, KAP-1 phosphorylation AlphaLISA, neocarzinostatin DNA damage 30 min before lysis; series mostly up to 57.5 µM; activation: at the top concentration
Procedure, shortened: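 hTERT-immortalized A-T patient fibroblasts ([…]), 500 cells/well in OPTI-MEM, 1% FBS, got compounds for 60 min, then NCS for 30 min at 37C. Lysates were then assayed for phospho-KAP-1 by AlphaLISA (anti-pKAP1 donor, anti-KAP1 acceptor beads), 6 hr at 25C.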
For `O=C1CN(CC(=O)N2CCOCC2)c2ccccc2O1`, the Potency was active: 28.2 µM.
For `CCc1c(C)[nH]n(-c2nc(-c3ccccc3)cs2)c1=O`, the “activation” value was inactive: -1.59%.
For `O=C(Nc1ccc(Cl)cc1)c1csc(-c2ccccc2)n1`, the Potency was active: 17.8 µM.
In the case of `COc1cc(/C=N/Nc2nncn2/N=C/c2ccc(O)c(OC)c2)ccc1O`, the Potency is reported as inconclusive: 6.31 µM [activator, single point].
For `CCn1c(CNC(=O)C2CCCCC2)cc2ccccc21`, the “activation” value was inactive: 2.21%.
In the case of `CCc1nnc(NC(=O)CCC(=O)N2CCN(c3cc(C)ccc3C)CC2)s1`, the Potency is reported as inconclusive: 7.08 µM [activator, partial curve].
For `Cc1ccc(C2=NCCn3c2c2ccc(C(F)(F)F)cc2[n+]3[O-])cc1`, the Potency was inconclusive: 35.5 µM [activator, partial curve].
In the case of `N#Cc1ccc(CSc2nnc(-c3ccccn3)n2-c2ccccc2)cc1`, the Potency is reported as inconclusive: 7.08 µM [activator, single point].
In the case of `O=C1CCCCC1C(=O)c1cn(-c2ccc(Cl)c(Cl)c2)nn1` (centres undefined), the “activation” value is reported as inactive: 1.53%.
For `CN(C)c1nc(N2CCN(c3ccc(F)cc3)CC2)c(C#N)c(=O)o1`, the Potency was inconclusive: 0.708 µM [activator, full curve, poor fit].
For `O=C(COc1ccccc1)N1CCc2ccccc21`, the “activation” value was inactive: 0.31%.
With `c1ccc(-c2nnc(CN3CCCCC3)o2)cc1` the Potency was active: 44.7 µM.
With `COc1cccc(-c2nc(OC(C)C)c3ccccc3n2)c1` the Potency was inconclusive: 39.8 µM [activator, single point].
In the case of `COC(=O)c1c(-c2ccc(N(C)C)cc2)sc2ccc(OC)cc12`, the Potency is reported as active: 25.1 µM.
In the case of `Cc1cccc(Cn2c(NCCO)nc3c2c(=O)n(C)c(=O)n3C)c1`, the Potency is reported as active: 31.6 µM.
In the case of `Cn1nc([N+](=O)[O-])c(C(C#N)c2ccccn2)c(Cl)c1=O` (centres undefined), the Potency is reported as inconclusive: 35.5 µM [activator, single point].
With `Cc1ccc(N2CCCCn3c2nc2c3c(=O)[nH]c(=O)n2C)cc1` the Potency was inconclusive: 3.55 µM [activator, single point].
With `CCn1cc(/C=C/c2cc[n+](C)cc2)c2ccccc21` the Potency was active: 3.16 µM.
For `C/C(=N/Nc1cc(-c2ccccc2)nc(-c2ccccc2)n1)c1ccc(O)cc1`, the Potency was inconclusive: 35.5 µM [activator, single point].
In the case of `COc1ccc(-n2c(C)c(C)c3c(NCCN(C)C)ncnc32)cc1`, the Potency is reported as active: 7.08 µM.
In the case of `CNC(=O)c1c(NC(=O)C2=COCCO2)sc2c1CCCC2`, the Potency is reported as inconclusive: 4.47 µM [activator, single point].
In the case of `NC(=O)COC(=O)CCSc1ccc(Cl)cc1`, the “activation” value is reported as inactive: 0.248%.
For `CCCc1nc2c(ccc3ccccc32)cc1CC`, the Potency was inconclusive: 39.8 µM [activator, partial curve].
For `CCCc1cc(=O)[nH]c(SCC(=O)N2N=C(c3ccc(Cl)cc3)CC2c2ccco2)n1` (centres undefined), the “activation” value was inactive: 1.37%.
For `CCOC(=O)c1c(O)cc(C)cc1Nc1ccccc1`, the Potency was inconclusive: 28.2 µM [activator, partial curve].
With `CCC(CN(C)C)Oc1cc(NCc2ccccc2)c2ncn(C(C)C)c2c1` (centres undefined) the “activation” value was inactive: 1.66%.
With `COc1ccc(C(=O)/C=C/c2ccccc2)c(O)c1` the Potency was inconclusive: 20 µM [activator, partial curve].
For `CN(C)C=NC(=O)c1[nH]c2ccc(Cl)cc2c1-c1ccccc1`, the Potency was inconclusive: 39.8 µM [activator, single point].
With `O=C(CCc1ccccc1)Nc1cccc(S(=O)(=O)N2CCOCC2)c1` the “activation” value was inactive: 3.36%.
In the case of `Cc1ccc(NC(=O)c2ccc3c(c2)OCCO3)cc1C`, the “activation” value is reported as inactive: -0.861%.
In the case of `CCc1nc2ccccc2n(CCOCCn2c(=O)c(CC)nc3ccccc32)c1=O`, the Potency is reported as inconclusive: 2.82 µM [activator, full curve, poor fit].
For `COC(=O)c1ccc(C23CC4(C2)[C@H](CN(CC2CCCCC2)[C@@H]4c2ccccc2)C3c2ccc(Cl)nc2)cc1` (some centres undefined), the Potency was inconclusive: 25.1 µM [activator, partial curve, poor fit].
With `CC1(CCc2ccccc2)NC(=O)N(CC(=O)O)C1=O` (centres undefined) the Potency was inconclusive: 3.55 µM [activator, partial curve].
In the case of `O=C(Nc1ccccc1N1CCCCC1)c1ccccc1F`, the Potency is reported as active: 28.2 µM.
With `COc1ccc2c(Cl)c(C(=O)OCC(=O)c3ccc4c(c3)NC(=O)CO4)sc2c1Cl` the Potency was inconclusive: 1 µM [activator, partial curve].
For `COc1ccc(NC(=S)Nc2cc(C)[nH]n2)cc1Cl`, the Potency was inconclusive: 3.55 µM [activator, partial curve].
For `Cc1ccccc1NC(=O)CN1C(=O)N/C(=C\c2cccn2-c2cccc(C(=O)O)c2)C1=O`, the Potency was inconclusive: 3.98 µM [activator, single point].
With `COC(=O)c1c(-c2ccc(S(C)(=O)=O)cc2)sc2ccc(OC)cc12` the “activation” value was inactive: 4.91%.
For `Cc1cc(Cl)cc(Cl)c1OCC(=O)NCc1ccco1`, the Potency was inconclusive: 15.8 µM [activator, partial curve].
With `CCO[C@H]1OC(C(=O)N2CCOCC2)=C[C@@H](C2CC2)[C@@H]1CCCO` the Potency was inconclusive: 39.8 µM [activator, single point].
In the case of `Cc1cc(N2CCOCC2)n2ncc(-c3ccccc3)c2n1`, the “activation” value is reported as inactive: -3.13%.
For `COc1ccc(-c2c(-c3ccccc3OC)sc3ccccc23)cc1`, the “activation” value was inactive: 21.1%.
With `Cc1oc2c(c1C(=O)c1ccccc1)C(=O)C(=O)c1ccccc1-2` the Potency was inconclusive: 3.98 µM [activator, single point].
With `Cc1ccccc1NC(=O)Cn1nnc(-c2ccc(CN3CCC(C)CC3)cc2)n1` the Potency was inconclusive: 22.4 µM [activator, single point].
For `CN(C)c1cc(Nc2ccc(O)cc2)c([N+](=O)[O-])c2nonc12`, the Potency was active: 7.08 µM.
In the case of `COC(=O)c1cccc(C23CC4(C2)[C@H](CN(Cc2cccnc2)[C@@H]4c2ccccc2)C3c2ccc(Cl)nc2)c1` (some centres undefined), the Potency is reported as inconclusive: 39.8 µM [activator, single point].
With `COCCN1C(=O)N[C@@H](CCc2ccccc2)[C@H](C(C)=O)[C@H]1C` the Potency was inconclusive: 5.62 µM [activator, single point].
In the case of `Cc1ccc(S(=O)(=O)Nc2ccc(-c3nc4ccc(C)cc4s3)cc2)cc1`, the “activation” value is reported as inactive: 18.6%.
With `COc1ccc(-c2nnc(SCc3cc(C)cc(C)c3)o2)cc1` the Potency was inconclusive: 39.8 µM [activator, single point].
For `O=C(O)c1ccccc1C(=O)c1ccc(N2CCCC2)c([N+](=O)[O-])c1`, the “activation” value was inactive: -1.34%.
In the case of `CC1Cc2ccccc2N1C(=O)CSc1nnnn1-c1ccc2c(c1)OCCO2` (centres undefined), the Potency is reported as inconclusive: 8.91 µM [activator, partial curve].
For `O=C(/C=C/c1cccs1)c1ccc(Br)cc1`, the “activation” value was inactive: 4.86%.
In the case of `O=C(Nc1cccc(C(F)(F)F)c1)N(Cc1ccc(Cl)cc1)CC(O)C(F)(F)F` (centres undefined), the Potency is reported as inconclusive: 31.6 µM [activator, single point].
In the case of `CC(=O)NS(=O)(=O)c1ccc(NC(=O)c2ccc(NC(=O)c3cccs3)cc2)cc1`, the “activation” value is reported as inactive: 12.6%.
With `CCO/C=C1/C(=O)N(C)C(=O)c2cc(OC)ccc21` the “activation” value was inactive: 1.61%.
With `C[C@H]1CN=C(Nc2ccccc2)N1CCC1CCCCC1` the Potency was inconclusive: 39.8 µM [activator, single point].
With `Cc1cccc(OCC(=O)Nc2ccccc2N2CCCCC2)c1C` the Potency was inconclusive: 31.6 µM [activator, partial curve].
With `O=C(CSc1nnc(-c2cccnc2)n1Cc1ccco1)c1ccc(Cl)c(Cl)c1` the Potency was inconclusive: 3.55 µM [activator, full curve, poor fit].
With `COc1cccc(CN2CCN(Cc3cc(OC)c(OC)cc3OC)CC2)c1` the Potency was inconclusive: 0.282 µM [activator, full curve].
For `CN1C(C(=O)NCC2CC2)CC2Cn3c(nc4cc(Cl)c(Cl)cc43)C21` (centres undefined), the Potency was active: 35.5 µM.
In the case of `COc1ccc(Nc2nc(N)c([N+](=O)[O-])c(NC3CCCCC3)n2)cc1`, the Potency is reported as inconclusive: 39.8 µM [activator, single point].
With `CC(C)n1cc(CN2CCC(n3nccc3NC(=O)Cc3ccccc3)CC2)cn1` the Potency was inconclusive: 3.98 µM [activator, partial curve].
In the case of `O=C(Nc1nnc(COc2ccc(F)cc2)s1)Nc1ccccc1F`, the Potency is reported as inconclusive: 2.82 µM [activator, partial curve].
For `COc1ccccc1-n1c(C)c(C(=O)O)c2cc(OC)c3ccccc3c21`, the Potency was inconclusive: 15.8 µM [activator, partial curve].
In the case of `Cc1ccc2[nH]c(O)c(N=NC(=O)C3CC3c3ccccc3)c2c1Br` (centres undefined), the Potency is reported as inconclusive: 39.8 µM [activator, single point].
For `COc1ccc(/C=N/Nc2cc(C)nc(N3CCOCC3)n2)cc1`, the Potency was inconclusive: 0.708 µM [activator, full curve, poor fit].
For `COc1ccc(CNn2c(-c3cccs3)nc3ccccc3c2=O)cc1OC`, the “activation” value was inactive: 6.4%.
For `CCOC(=O)C1(CCOc2ccccc2)CCN(Cc2ccc(OCCO)cc2)CC1`, the “activation” value was inactive: 3.36%.
For `COc1ccc(-c2sc3ccccc3c2/C=C/c2ccncc2)cc1`, the “activation” value was inactive: 5.54%.
For `CCCCn1nc(NC(=O)CC)c2cc3cc(OC)ccc3nc21`, the Potency was inconclusive: 39.8 µM [activator, partial curve].
In the case of `Cc1cccc(C)c1NC(=O)C(C)N1CCCC1` (centres undefined), the Potency is reported as inconclusive: 7.08 µM [activator, single point].
With `Nn1c(C2CCCCC2)nc2ccccc2c1=O` the Potency was inconclusive: 3.16 µM [activator, partial curve].
For `CN(C)S(=O)(=O)c1cccc(NC(=O)c2ccc3nccnc3c2)c1`, the Potency was active: 15.8 µM.
For `CCCCNC(=O)Nc1ccon1`, the Potency was inconclusive: 17.8 µM [activator, partial curve].
Potency means the concentration at half of the fitted maximal effect.
